In this test the target is T1, Lsm6 (subunit of the "mostly wild type" Lsm2–8 ring) (S. cerevisiae) (UniProt Q06406).
T1 sequence: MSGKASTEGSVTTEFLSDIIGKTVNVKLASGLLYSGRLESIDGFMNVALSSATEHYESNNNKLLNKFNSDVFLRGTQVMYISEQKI
Put plainly: crystal structure; U6 snRNP reconstituted from U6 nucleotides 30–112 (A62G, terminal 2′ phosphate), Prp24 1–444 and "mostly wild type" Lsm2–8; hanging drop, 16 °C; PDB 5VSU; both purified.

No constants are given. Whether binding was seen depends on the method and setting. Some results given as binding are weak or reduced against the parent protein; the word gives no strength.

B1: Lsm8 (subunit of the "mostly wild type" Lsm2–8 ring) (protein, UniProt P47093 1-109)
chain: MSATLKDYLNKRVVIIKVDGECLIASLNGFDKNTNLFITNVFNRISKEFICKAQLLRGSEIALVGLIDAENDDSLAPIDEKKVPMLKDTKNKIENEHVIWEKVYESKTK
Turning to B1, the binding entry is reported as “binds”.

For the origin of these results see PMC5931518, “Architecture of the U6 snRNP reveals specific recognition of 3′-end processed U6 snRNA”.
